Some of these results come from one statement about several compounds together.
Target: T1, human EP4 (Homo sapiens, UniProt P35408)
T1 construct: expressed in transfected cells
Experiment: In vitro binding to human EP4 ([3H]-PGE2 displacement, membranes)
Conditions: HEK293 membranes, read-out: Ki value for hEP4
Method: hEP1 and hEP4 membranes are prepared from recombinant HEK293 cells stably expressing human EP1 (Genbank accession number AY275470) or EP4 (Genbank accession number AY429109) receptors. hEP2 and hEP3 membranes are prepared from HEK293 cells transiently transfected with EP2 (Genbank accession number AY275471) or EP3 (isoform VI: Genbank accession number AY429108) receptor plasmids. Frozen cell pellets are homogenized in homogenization buffer using a Teflon/glass homogenizer. Membrane protein is aliquoted and quick frozen on dry ice prior to storage at −80° C. Homogenization buffer contained 10 mM Tris-HCl, pH 7.4, 250 mM sucrose, 1 mM EDTA, 0.3 mM indomethacin and plus Complete™, with EDTA, obtained from Roche Molecular Biochemicals (Catalog Number 1 697 498).
Kd values for [^3H]-PGE2 binding to each receptor are determined by saturation binding studies or homologous competition. Compounds are tested in a 96-well format using a three-fold dilution series to generate a 10-point curve. Diluted compound is incubated with 20 μg/well EP1, 10 μg/well EP2, 1 μg/well EP3 or 10 to 20 μg/well EP4 membrane for 90 minutes at 25° C. in the presence of 0.3 to 0.5 nM [^3H]-PGE2 (PerkinElmer, 118 to 180 Ci/mmol). The binding reaction is performed in 200 μL MES buffer (10 mM MES pH 6.0 with KOH, 10 mM MgCl2 and 1 mM EDTA) using 0.5 mL polystyrene 96-well deep-well plates. Non-specific binding is calculated by comparing binding in the presence and absence of 2 μM of PGE2. The membranes are harvested by filtration (TomTek harvester), washed 4 times with cold buffer (10 mM MES pH 6.0 with KOH, 10 mM MgCl2), dried in a 60° C. oven, and the radioactivity is quantified as counts per minute (CPM) using a TopCount detector. Percent specific binding is calculated as the percent of the binding in the absence of any inhibitor, corrected for binding in the presence of 2 uM of PGE2. Data are analyzed using a 4-parameter nonlinear logistic equation (ABase Equation 205) as shown: y=(A+((B−A)/(1+((C/x)^D)) where, y=% specific inhibition, A=bottom of the curve; B=top of the curve; C=relative IC50=concentration causing 50% inhibition based on the range of the data from top to bottom; D=Hill, Slope=slope of the curve. Ki conversion from IC50 Values (Ki=IC50/(1+[L]/Kd) where [L] is the ligand concentration). Results are expressed as the geometric mean±standard deviation; n=number of independent determinations. The standard deviation is calculated by the delta method, being SDlog Ki×geometric mean×ln(10).

Chains of the proteins cited; added tags and fusions are not shown. Lines headed by an entry give the natural chain unless they say otherwise; changes in a name come on top.
UniProt P35408: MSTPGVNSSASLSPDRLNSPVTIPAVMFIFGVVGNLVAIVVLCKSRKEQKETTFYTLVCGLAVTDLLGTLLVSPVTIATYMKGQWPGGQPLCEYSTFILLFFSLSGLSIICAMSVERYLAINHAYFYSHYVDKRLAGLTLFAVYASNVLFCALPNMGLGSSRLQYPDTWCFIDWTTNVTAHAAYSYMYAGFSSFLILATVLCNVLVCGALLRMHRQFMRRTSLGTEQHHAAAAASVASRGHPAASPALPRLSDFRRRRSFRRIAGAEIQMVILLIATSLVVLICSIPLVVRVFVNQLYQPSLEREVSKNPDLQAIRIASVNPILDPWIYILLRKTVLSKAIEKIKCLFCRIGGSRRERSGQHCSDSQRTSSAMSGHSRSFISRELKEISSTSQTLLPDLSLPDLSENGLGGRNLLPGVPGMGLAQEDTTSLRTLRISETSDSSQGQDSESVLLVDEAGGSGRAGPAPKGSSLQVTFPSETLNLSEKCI

SMILES | Ki [nM]
Cc1ccc(C(=O)O)c(C)c1NC(=O)c1cc(-c2cccc(CO)c2)nc2ccccc12 [Example 38, 3-[[2-[3-(Hydroxymethyl)phenyl]quinoline-4-carbonyl]amino]-2,4-dimethyl-benzoic acid] | < 1000
Cc1ccc(-c2cccc(C(F)(F)F)c2)nc1C(=O)Nc1c(C)ccc(C(=O)O)c1C [Example 30, 2,4-Dimethyl-3-[[3-methyl-6-[3-(trifluoromethyl)phenyl]pyridine-2-carbonyl]amino] benzoic acid] | < 1000
Cc1ccc(-c2cccc(CCO)c2)cc1C(=O)Nc1c(C)ccc(C(=O)O)c1C [Example 2, 3-[[5-[3-[2-hydroxyethyl)phenyl]-2-methyl-benzoyl]amino]-2,4-dimethyl-benzoic acid] | < 1000
Cc1ccc(-c2cccc(C#N)c2)nc1C(=O)Nc1c(C)ccc(C(=O)O)c1C [Example 19, 3-[[6-(3-Cyanophenyl)-3-methyl-pyridine-2-carbonyl]amino]-2,4-dimethyl-benzoic acid] | < 1000
Cc1ccc(-c2cccc(OC(F)(F)F)c2)nc1C(=O)Nc1c(C)cc(C(=O)O)cc1C [Example 35, 3,5-Dimethyl-4-[[3-methyl-6-[3-(trifluoromethoxy)phenyl]pyridine-2-carbonyl]amino]benzoic acid] | < 1000
Cc1cc(C(=O)O)cc(C)c1NC(=O)c1nc(-c2cccc(CO)c2)ccc1C(F)(F)F [Example 10, 4-[[6-[3-(Hydroxymethyl)phenyl]-3-(trifluoromethyl)pyridine-2-carbonyl]amino]-3,5-dimethyl-benzoic acid] | < 1000
Cc1ccc(-c2cccc(Cl)c2)nc1C(=O)Nc1c(C)ccc(C(=O)O)c1C [Example 17, 3-[[6-(3-Chlorophenyl)-3-methyl-pyridine-2-carbonyl]amino]-2,4-dimethyl-benzoic acid] | < 1000
Cc1ccc(-c2cccc(F)c2)nc1C(=O)Nc1c(C)ccc(C(=O)O)c1C [Example 29, 3-[[6-(3-Fluorophenyl)-3-methyl-pyridine-2-carbonyl]amino]-2,4-dimethyl benzoic acid] | < 1000
